Record: PubChem BioAssay AID1224830 (NIAID, 2016)
This is one part, drawn at random, of about 18,000 deposited reagents. In the full data, about 2,900 (16%) got an active call. 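Calls are made per well; low scores hint the gene aids the LPS response, high scores that it dampens it.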 Repeated entries: four replicate wells of each siRNA pool.

- Assay: 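Genes whose knock-down alters the TNF-alpha reporter response to LPS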 (primary screen)
- Cells: human THP-1 monocytic leukaemia cells, TNF dual-luciferase reporter clone, PMA-differentiated to macrophage-like cells
- Reagents: siRNA pool against human genes, 50 nM
- Timing: LPS for 4 h, given about 3 days after siRNA transfection
- Treatment: bacterial LPS (TLR4 ligand), 10 ng/ml
- Measurement: 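Ratio of firefly to renilla light, scaled to the plate median and expressed as a robust z-score per replicate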
- Scale: TNF reporter robust z-score: higher = stronger TNF reporter response to LPS
- Hit rule: 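Each well counts as active if its z-score is over 2.8 or under -1.5; controls are left without a call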

JAKMIP2 → TNF reporter robust z-score = -0.52; Call = inactive
JAKMIP2 → TNF reporter robust z-score = -1.14; Call = inactive
JAKMIP2 → TNF reporter robust z-score = -0.27; Call = inactive
JAKMIP2 → TNF reporter robust z-score = -0.18; Call = inactive
HSPA1B → TNF reporter robust z-score = 0.09; Call = inactive
HSPA1B → TNF reporter robust z-score = 0.27; Call = inactive
HSPA1B → TNF reporter robust z-score = 0.04; Call = inactive
HSPA1B → TNF reporter robust z-score = 2.21; Call = inactive
IDH3G → TNF reporter robust z-score = -0.99; Call = inactive
IDH3G → TNF reporter robust z-score = -0.83; Call = inactive
IDH3G → TNF reporter robust z-score = 0.22; Call = inactive
FOXR2 → TNF reporter robust z-score = -2; Call = active
FOXR2 → TNF reporter robust z-score = -1.16; Call = inactive
FOXR2 → TNF reporter robust z-score = -1; Call = inactive
FOXR2 → TNF reporter robust z-score = 0.1; Call = inactive
GNAQ → TNF reporter robust z-score = -0.25; Call = inactive
GNAQ → TNF reporter robust z-score = 0.16; Call = inactive
GNAQ → TNF reporter robust z-score = 0.08; Call = inactive
GNAQ → TNF reporter robust z-score = -0.01; Call = inactive
MCCD1 → TNF reporter robust z-score = 0.31; Call = inactive
MCCD1 → TNF reporter robust z-score = 0.97; Call = inactive
MCCD1 → TNF reporter robust z-score = -0.04; Call = inactive
MCCD1 → TNF reporter robust z-score = 0.16; Call = inactive
ZNF606 → TNF reporter robust z-score = -0.15; Call = inactive
ZNF606 → TNF reporter robust z-score = 0.33; Call = inactive
ZNF606 → TNF reporter robust z-score = -0.83; Call = inactive
ZNF606 → TNF reporter robust z-score = -0.53; Call = inactive
FCGBP → TNF reporter robust z-score = -0.7; Call = inactive
FCGBP → TNF reporter robust z-score = 0.01; Call = inactive
FCGBP → TNF reporter robust z-score = -0.93; Call = inactive
FCGBP → TNF reporter robust z-score = -0.34; Call = inactive
DLX3 → TNF reporter robust z-score = 1.33; Call = inactive
DLX3 → TNF reporter robust z-score = 1.95; Call = inactive
DLX3 → TNF reporter robust z-score = 1.93; Call = inactive
DLX3 → TNF reporter robust z-score = 1.49; Call = inactive
GALK2 → TNF reporter robust z-score = 0.69; Call = inactive
GALK2 → TNF reporter robust z-score = 1.5; Call = inactive
GALK2 → TNF reporter robust z-score = 2.64; Call = inactive
GALK2 → TNF reporter robust z-score = 2.18; Call = inactive

Records listed so far with an active call (1):
FOXR2 → TNF reporter robust z-score = -2; Call = active

Continued:
MARS1 → TNF reporter robust z-score = 0.06; Call = inactive
MARS1 → TNF reporter robust z-score = -0.34; Call = inactive
MARS1 → TNF reporter robust z-score = -0.54; Call = inactive
MARS1 → TNF reporter robust z-score = -0.4; Call = inactive
NUDCD2 → TNF reporter robust z-score = -0.05; Call = inactive
NUDCD2 → TNF reporter robust z-score = -0.54; Call = inactive
NUDCD2 → TNF reporter robust z-score = 0.2; Call = inactive
NUDCD2 → TNF reporter robust z-score = 0.08; Call = inactive
SAMD5 → TNF reporter robust z-score = -0.68; Call = inactive
SAMD5 → TNF reporter robust z-score = 0.49; Call = inactive
SAMD5 → TNF reporter robust z-score = 1.99; Call = inactive
SAMD5 → TNF reporter robust z-score = 0.36; Call = inactive
ZNF513 → TNF reporter robust z-score = -0.35; Call = inactive
ZNF513 → TNF reporter robust z-score = -0.24; Call = inactive
ZNF513 → TNF reporter robust z-score = -1.07; Call = inactive
ZNF513 → TNF reporter robust z-score = -1.37; Call = inactive
VWCE → TNF reporter robust z-score = -0.76; Call = inactive
VWCE → TNF reporter robust z-score = -0.4; Call = inactive
VWCE → TNF reporter robust z-score = -1.18; Call = inactive
VWCE → TNF reporter robust z-score = 0.44; Call = inactive
FRZB → TNF reporter robust z-score = -1.13; Call = inactive
FRZB → TNF reporter robust z-score = 0.5; Call = inactive
FRZB → TNF reporter robust z-score = -0.24; Call = inactive
FRZB → TNF reporter robust z-score = -0.18; Call = inactive
